Results published in publication PMC7897678 (Frontiers in Immunology, 2020).

The chains behind the UniProt entries cited, without tags or fusion partners. Residues count along the entry.
UniProt Q9QYS2, residues 23-879: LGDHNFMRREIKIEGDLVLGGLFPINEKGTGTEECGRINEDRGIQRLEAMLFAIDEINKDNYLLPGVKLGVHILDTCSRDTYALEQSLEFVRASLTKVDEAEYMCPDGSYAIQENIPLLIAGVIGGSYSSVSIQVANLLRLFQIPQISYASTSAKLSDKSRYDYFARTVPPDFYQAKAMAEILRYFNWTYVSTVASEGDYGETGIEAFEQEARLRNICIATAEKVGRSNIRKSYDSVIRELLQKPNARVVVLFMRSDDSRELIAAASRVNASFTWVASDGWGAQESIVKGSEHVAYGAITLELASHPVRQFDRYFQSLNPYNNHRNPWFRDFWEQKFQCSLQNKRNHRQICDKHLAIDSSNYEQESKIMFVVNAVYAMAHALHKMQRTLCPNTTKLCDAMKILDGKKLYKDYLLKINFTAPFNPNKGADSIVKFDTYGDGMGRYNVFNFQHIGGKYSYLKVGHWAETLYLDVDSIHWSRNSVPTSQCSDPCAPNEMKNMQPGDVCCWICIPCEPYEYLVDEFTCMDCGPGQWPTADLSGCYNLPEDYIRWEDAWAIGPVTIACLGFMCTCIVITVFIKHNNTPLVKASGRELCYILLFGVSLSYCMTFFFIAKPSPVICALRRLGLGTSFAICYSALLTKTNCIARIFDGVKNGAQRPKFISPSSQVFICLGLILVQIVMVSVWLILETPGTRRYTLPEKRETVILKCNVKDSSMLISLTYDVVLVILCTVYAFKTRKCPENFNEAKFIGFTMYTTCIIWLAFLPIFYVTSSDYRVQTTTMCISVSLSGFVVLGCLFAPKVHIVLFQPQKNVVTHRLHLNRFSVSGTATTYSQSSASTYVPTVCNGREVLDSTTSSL

T1: Neuronal pentraxin 1, endogenous in mouse cortical synaptosomes (mouse (endogenous in cortical synaptosomes)) (UniProt Q62443)
T1 sequence: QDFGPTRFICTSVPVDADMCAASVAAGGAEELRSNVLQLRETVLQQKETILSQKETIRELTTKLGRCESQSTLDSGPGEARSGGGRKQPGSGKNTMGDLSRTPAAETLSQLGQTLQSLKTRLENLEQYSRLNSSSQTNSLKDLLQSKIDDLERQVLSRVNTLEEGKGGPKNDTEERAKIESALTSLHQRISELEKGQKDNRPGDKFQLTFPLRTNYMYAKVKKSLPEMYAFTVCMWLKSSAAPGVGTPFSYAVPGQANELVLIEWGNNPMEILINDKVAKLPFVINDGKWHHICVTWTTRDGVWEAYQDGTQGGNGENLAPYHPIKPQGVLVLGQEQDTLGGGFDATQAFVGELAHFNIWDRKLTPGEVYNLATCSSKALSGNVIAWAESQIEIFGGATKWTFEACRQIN

B1: Neuronal pentraxin 2, endogenous in mouse cortical synaptosomes (protein, UniProt O70340 15-429)
chain: AGRAQDSPIPGSRFVCTALPPEAARAGCPLPAMPMQGGALSPEEELRAAVLQLRETVVQQKETLGAQREAIRELTGKLARCEGLAGGKARGTGKDTMGDLPRDPGHVVEQLSRSLQTLKDRLESLELQLRTNVSNAGLPSDFREVLQRRLGELERQLLRKVAELEDEKSLLHNETSAHRQKTESTLNALLQRVTELERGNSAFKSPDAFKVSLPLRTNYLYGKIKKTLPELYAFTICLWLRSSASPGIGTPFSYAVPGQANEIVLIEWGNNPIELLINDKVAQLPLFVSDGKWHHICITWTTRDGMWEAFQDGEKLGTGENLAPWHPIKPGGVLILGQEQDTVGGRFDATQAFVGELSQFNIWDRVLRAQEIINIANCSTNMPGNIIPWVDNNVDVFGGASKWPVETCEERLLDL
B2: Neuronal pentraxin receptor, endogenous in mouse cortical synaptosomes (receptor, UniProt Q99J85 1-493)
chain: MKFLAVLLAAGMLAFLGAVICIIASVPLAASPARALPGGTDNASAASAAGGSGPQRSLSALHSAGGSAGPSVLPGEPAASVFPPPPVPLLSRFLCTPLAAACPSGAEQGDAAGERAELLLLQSTAEQLRQTALQQEARIRADRDTIRELTGKLGRCESGLPRGLQDAGPRRDTMADGAWDSPALLLELEDAVRALRDRIERIEQELPARGNLSSAPAPAMPTALHSKMDELECQLLAKVLALEKERAALSHGSHQQRQEVEKELNALQGRVAELEHGSSAYSPPDAFKVSIPIRNNYMYARVRKALPELYAFTACMCVRSRSGGSGQGTPFSYSVPGQANEIVLLEAGLEPMELLINDKVAQLPLSLKDSNWHHICISWTTRDGLWSAYQDGELRGSGENLAAWHPIKPHGILILGQEQDTLGGRFDATQAFVGDIAQFNLWDHALTPAQVLGMANCTGPLMGNVLPWEDKLVEAFGGAKKAAFDVCKGRAKA

Target: T1, Neuronal pentraxin 1, endogenous in mouse cortical synaptosomes (mouse (endogenous in cortical synaptosomes))
Test: affinity purification with mass spectrometry; co-immunoprecipitation from mouse cortical synaptosome lysate (TBS, 1% Triton X-100, 1 mM CaCl2, 1 mM MgCl2, 4 °C) with anti-NP1 or anti-C1qA antibody and Protein A/G Sepharose beads; whole gel lanes identified by HPLC-MS/MS; isotype control antibodies

binding, binds:
Glutamate receptor Grm3, endogenous in mouse cortical synaptosomes (from UniProt Q9QYS2 23-879)
B1
B2

Results are given in words; binding and its absence hold for the method and conditions named. In cells and extracts the contact can be indirect. These calls come from enrichment with a bait or labelling near it, and not all partners need be listed.
